Test system: reconstructed human epidermis (SkinEthic)
Assay: Transepidermal diffusion of 14C testosterone (and metabolites) through reconstructed human epidermis
Format: cell-based
Conditions: Finasterid 10 μm, t = 24 hours

Which results are given for `CC(C)(C)NC(=O)[C@H]1CC[C@H]2[C@@H]3CC[C@H]4NC(=O)C=C[C@]4(C)[C@H]3CC[C@]12C` [Finasterid, Finasteride]?
% 14C Testosterone (transepidermal diffusion) (control = 100): 110%; Nmole steroid (diffused) (total testosterone 4.5, control 2.2): 2.4 nmol
